Measurements taken from publication PMC8876561.
Results are given in words; binding and its absence hold for the method and conditions named. Some entries that bind do so weakly or less than the wild type.

Target: Wild-type Spa47 (Shigella T3SS ATPase) (Shigella flexneri) (UniProt Q6XVW8)
Experiment: SEC; Superdex 10/300 size exclusion column in 20 mM Tris, 100 mM NaCl, 5 mM DTT, pH 7.9, 4 °C; monomeric and oligomeric fractions isolated; size of the oligomer not stated; both purified

Substance: Wild-type Spa47 (Shigella T3SS ATPase) (from UniProt Q6XVW8 1-430) (enzyme)
- binding: binds
